# Source: patent US20030229044A1, “Use of statins and other immunomodulatory agents in the treatment of autoimmune disease” (priority 2002, published 2003)
# Key:
# [1] = tested on: CNS infiltrates in brains of EAE mice; conditions: H&E brain sections, 1 and 10 mg/kg, vs PBS treated mice; day 22 after EAE induction, C57BL/6
# [2] = tested on: CIITA transcripts in the CNS; conditions: brain, SJL/J mice, 1 or 10 mg/kg oral for 12 days
structure (smiles),measurement,setting,value
CC(C)c1c(C(=O)Nc2ccccc2)c(-c2ccccc2)c(-c2ccc(F)cc2)n1CC[C@@H](O)C[C@@H](O)CC(=O)O [atorvastatin],number and size of CNS infiltrates,[1],reduction in number and size of CNS infiltrates
same,CIITA PIV transcript,[2],dose dependent inhibition
same,"specific isoforms of CIITA (PI, PIII, PIV)",[2],inhibits all three specific isoforms of CIITA
same,total expression of CIITA transcripts,[2]; day 10 of EAE,inhibited the total expression of CIITA transcripts in a dose response matter
